From the supplement of paper PMC10849652
Some of the results follow.

Sequences of proteins named here, by UniProt entry; tags and fusion partners are left off. A change or cut given only in a name is not applied to a line headed by its entry.
UniProt Q01995: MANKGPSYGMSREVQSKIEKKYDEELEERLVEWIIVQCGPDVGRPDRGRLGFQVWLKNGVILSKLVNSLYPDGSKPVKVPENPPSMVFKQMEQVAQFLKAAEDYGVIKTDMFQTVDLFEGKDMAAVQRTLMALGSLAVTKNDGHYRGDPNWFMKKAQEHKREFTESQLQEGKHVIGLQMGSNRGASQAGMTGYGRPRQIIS
UniProt Q9Y2K9: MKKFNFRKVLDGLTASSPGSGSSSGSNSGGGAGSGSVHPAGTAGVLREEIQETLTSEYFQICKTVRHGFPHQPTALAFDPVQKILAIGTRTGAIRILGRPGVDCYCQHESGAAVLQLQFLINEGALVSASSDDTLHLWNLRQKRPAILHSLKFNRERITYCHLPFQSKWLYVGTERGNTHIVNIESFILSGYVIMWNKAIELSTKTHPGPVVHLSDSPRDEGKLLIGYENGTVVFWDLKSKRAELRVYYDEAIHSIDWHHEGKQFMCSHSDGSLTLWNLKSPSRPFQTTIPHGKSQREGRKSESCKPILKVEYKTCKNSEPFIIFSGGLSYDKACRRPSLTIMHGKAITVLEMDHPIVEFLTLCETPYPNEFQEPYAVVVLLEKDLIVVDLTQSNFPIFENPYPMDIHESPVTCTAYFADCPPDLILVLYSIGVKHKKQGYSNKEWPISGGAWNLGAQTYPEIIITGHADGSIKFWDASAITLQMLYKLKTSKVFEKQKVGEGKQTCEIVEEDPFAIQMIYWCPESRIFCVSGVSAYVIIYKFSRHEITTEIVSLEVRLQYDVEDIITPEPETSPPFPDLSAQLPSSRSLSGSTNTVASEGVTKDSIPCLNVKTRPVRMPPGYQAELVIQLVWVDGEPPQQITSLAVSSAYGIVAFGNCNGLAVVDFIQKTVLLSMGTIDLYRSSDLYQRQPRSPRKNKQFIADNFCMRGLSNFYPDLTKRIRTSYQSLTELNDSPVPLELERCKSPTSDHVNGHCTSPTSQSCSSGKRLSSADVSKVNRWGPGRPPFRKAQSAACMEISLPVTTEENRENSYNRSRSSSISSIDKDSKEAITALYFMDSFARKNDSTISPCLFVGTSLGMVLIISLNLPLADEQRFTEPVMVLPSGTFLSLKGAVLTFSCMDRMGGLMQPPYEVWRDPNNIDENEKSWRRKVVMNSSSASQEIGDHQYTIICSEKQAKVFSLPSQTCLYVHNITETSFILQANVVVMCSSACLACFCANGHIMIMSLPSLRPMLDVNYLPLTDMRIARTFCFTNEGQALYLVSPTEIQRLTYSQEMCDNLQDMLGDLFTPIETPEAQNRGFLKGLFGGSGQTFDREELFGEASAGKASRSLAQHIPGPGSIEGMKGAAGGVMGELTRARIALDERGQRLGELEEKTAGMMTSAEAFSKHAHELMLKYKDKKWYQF
UniProt Q15543, whole entry, looked up: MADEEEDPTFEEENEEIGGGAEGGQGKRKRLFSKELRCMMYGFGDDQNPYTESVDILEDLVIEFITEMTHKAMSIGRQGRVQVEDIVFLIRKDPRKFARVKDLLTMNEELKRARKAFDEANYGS
UniProt Q6P1N9: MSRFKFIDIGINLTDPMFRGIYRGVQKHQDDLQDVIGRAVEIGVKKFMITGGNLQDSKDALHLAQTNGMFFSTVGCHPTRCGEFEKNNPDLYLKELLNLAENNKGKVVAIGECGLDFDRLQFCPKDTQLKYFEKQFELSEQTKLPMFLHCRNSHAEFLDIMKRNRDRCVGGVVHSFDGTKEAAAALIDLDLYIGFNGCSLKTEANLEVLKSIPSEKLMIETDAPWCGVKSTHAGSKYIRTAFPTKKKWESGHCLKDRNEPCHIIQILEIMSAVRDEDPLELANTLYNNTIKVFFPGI
UniProt O60347: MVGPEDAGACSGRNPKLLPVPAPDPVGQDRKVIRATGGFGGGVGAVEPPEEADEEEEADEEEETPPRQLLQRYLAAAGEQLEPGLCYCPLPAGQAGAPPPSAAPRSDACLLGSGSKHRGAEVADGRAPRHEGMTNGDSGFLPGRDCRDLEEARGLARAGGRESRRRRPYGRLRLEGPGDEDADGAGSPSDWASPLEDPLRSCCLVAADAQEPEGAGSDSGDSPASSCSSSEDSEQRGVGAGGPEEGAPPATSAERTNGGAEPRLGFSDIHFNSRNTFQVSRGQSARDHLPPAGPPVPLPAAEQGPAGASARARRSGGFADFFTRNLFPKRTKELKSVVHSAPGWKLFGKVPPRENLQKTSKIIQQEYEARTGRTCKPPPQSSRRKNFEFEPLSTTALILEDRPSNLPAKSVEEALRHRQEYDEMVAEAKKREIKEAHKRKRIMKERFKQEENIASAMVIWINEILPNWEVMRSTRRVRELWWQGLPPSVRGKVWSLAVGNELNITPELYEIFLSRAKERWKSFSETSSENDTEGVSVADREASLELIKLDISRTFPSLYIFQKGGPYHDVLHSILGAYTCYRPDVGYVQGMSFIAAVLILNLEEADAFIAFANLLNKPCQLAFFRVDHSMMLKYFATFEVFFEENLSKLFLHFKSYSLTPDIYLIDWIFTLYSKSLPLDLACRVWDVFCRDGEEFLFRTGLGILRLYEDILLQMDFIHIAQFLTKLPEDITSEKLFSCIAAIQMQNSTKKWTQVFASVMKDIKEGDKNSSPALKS
UniProt Q8N300: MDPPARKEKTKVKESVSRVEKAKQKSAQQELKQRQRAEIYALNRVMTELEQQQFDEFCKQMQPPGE
UniProt Q8NBK3: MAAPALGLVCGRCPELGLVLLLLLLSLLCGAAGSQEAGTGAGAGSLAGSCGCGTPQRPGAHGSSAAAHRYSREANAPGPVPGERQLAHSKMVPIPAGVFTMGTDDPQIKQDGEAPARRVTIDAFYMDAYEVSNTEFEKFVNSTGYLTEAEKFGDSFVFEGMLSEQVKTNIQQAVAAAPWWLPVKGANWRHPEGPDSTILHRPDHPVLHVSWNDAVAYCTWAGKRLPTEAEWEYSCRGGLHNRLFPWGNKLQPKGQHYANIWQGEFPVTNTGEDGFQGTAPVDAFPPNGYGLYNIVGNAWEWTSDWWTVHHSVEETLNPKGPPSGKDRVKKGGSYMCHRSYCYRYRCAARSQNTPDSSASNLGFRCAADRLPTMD
UniProt Q9UI15: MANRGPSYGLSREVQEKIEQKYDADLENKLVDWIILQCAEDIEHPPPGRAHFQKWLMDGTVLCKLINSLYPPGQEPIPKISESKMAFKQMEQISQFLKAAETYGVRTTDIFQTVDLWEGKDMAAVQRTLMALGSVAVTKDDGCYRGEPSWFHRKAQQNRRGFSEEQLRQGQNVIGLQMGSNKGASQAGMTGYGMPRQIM
UniProt Q8IX01: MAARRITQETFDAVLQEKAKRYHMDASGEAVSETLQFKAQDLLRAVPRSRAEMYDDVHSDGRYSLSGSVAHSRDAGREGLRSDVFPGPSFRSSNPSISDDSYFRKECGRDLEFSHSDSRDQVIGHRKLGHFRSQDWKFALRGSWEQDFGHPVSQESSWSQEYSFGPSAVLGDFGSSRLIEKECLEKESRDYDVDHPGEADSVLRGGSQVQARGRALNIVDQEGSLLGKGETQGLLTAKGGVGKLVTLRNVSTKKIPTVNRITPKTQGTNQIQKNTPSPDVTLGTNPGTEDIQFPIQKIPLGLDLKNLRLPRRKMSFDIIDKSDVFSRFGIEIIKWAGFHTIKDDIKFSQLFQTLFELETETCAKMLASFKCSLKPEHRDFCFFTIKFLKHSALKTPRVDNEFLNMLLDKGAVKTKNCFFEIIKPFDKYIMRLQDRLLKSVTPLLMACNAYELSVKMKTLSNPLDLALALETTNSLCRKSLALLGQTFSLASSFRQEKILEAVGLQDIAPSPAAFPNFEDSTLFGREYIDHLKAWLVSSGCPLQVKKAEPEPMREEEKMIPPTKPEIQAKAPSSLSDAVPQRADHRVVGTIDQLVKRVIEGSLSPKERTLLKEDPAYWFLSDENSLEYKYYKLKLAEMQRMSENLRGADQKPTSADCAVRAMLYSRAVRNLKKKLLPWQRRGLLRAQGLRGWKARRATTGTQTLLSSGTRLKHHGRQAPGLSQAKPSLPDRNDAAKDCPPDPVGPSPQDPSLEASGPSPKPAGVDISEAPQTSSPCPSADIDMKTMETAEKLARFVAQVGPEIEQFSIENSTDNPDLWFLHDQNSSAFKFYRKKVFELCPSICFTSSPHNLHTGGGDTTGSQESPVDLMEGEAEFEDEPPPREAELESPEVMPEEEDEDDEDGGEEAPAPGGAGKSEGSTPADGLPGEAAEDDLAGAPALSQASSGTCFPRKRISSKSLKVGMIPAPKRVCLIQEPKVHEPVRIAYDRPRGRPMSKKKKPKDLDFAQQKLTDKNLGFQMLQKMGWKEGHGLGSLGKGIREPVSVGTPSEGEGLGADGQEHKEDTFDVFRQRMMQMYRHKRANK
UniProt O00268, whole entry, looked up: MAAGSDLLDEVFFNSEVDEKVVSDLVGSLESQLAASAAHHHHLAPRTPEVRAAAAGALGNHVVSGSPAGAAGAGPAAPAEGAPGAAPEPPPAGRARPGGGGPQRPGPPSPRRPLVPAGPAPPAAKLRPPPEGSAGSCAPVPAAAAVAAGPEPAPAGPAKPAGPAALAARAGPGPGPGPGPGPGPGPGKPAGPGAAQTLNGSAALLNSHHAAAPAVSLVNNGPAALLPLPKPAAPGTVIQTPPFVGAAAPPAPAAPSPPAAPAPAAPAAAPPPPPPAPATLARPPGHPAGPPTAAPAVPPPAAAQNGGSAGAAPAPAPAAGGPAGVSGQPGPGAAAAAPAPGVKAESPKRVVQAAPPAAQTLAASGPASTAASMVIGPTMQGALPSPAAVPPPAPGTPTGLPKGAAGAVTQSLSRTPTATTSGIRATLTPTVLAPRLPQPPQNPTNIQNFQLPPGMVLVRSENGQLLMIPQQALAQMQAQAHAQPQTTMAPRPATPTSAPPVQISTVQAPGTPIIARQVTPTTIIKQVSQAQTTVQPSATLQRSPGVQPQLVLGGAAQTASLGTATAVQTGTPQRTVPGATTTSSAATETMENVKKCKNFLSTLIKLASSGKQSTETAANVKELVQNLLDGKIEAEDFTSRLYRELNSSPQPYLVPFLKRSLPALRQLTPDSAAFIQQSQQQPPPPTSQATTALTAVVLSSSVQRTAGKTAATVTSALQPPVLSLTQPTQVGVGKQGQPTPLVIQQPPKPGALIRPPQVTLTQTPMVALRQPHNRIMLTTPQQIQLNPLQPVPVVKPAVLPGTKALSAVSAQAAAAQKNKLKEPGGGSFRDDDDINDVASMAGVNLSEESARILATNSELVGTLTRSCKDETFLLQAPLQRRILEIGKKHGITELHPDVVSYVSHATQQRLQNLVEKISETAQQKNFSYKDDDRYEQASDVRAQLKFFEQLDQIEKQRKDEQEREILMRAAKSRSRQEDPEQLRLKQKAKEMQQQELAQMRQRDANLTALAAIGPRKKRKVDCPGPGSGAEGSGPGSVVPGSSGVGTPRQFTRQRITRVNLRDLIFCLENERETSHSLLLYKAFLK
UniProt O94901, whole entry, looked up: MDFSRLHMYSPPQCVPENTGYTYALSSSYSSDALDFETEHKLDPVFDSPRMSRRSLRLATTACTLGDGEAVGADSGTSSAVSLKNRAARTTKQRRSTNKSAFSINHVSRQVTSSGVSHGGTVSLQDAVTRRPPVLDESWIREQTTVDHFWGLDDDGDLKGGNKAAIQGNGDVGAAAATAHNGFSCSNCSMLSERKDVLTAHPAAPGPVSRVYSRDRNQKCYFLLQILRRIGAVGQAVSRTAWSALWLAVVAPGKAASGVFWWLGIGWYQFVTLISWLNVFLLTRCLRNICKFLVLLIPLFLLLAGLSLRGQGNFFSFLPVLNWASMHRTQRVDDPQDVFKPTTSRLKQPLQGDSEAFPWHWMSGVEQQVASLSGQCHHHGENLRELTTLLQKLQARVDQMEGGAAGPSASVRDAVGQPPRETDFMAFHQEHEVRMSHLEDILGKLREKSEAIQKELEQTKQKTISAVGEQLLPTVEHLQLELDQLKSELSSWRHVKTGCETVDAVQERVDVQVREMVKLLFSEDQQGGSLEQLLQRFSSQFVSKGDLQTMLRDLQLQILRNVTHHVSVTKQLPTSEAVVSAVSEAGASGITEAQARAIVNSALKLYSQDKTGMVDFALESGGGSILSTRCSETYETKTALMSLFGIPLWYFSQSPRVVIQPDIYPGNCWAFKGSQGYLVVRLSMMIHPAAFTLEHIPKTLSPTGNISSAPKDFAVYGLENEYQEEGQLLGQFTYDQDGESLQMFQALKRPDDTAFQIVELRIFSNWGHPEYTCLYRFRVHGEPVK
UniProt Q96BN2: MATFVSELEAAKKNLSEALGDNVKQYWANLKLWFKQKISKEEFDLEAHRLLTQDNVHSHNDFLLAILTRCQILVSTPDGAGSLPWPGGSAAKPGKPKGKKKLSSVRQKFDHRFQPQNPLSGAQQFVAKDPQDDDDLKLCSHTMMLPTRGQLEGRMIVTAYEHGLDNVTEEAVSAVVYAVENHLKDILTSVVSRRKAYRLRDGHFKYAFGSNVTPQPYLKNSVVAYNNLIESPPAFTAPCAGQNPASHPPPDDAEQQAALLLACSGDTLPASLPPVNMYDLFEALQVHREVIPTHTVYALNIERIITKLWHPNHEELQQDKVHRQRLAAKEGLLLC

How the values were obtained:
Test in all cases: log2 fold change, soluble protein after heating vs DMSO (PISA); higher = thermal stabilisation; K562 cells, 10 uM, 30 min; active = over 0.2 and 3.5 SD of the protein, either way, in both replicates (recomputed)
nilotinib = compound: Cc1cn(-c2cc(NC(=O)c3ccc(C)c(Nc4nccc(-c5cccnc5)n4)c3)cc(C(F)(F)F)c2)cn1 [nilotinib]
Outline: (§1)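 K562 cells (2×10^6 cells/mL) were treated with 10 μM compound for 30 min, and aliquots were heated for 3 min over 48°C-58°C. Pooled aliquots were extracted in PBS with 0.5% NP-40 at 4°C, and the supernatant after 21,000xg for 90 min was measured by TMTpro 16plex LC-MS/MS with channel sums equalised. Reported thermal stability, relative to control samples and from duplicates, is a log2 fold change.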

[1] = compound: Cc1nc(Nc2n[nH]c3c2CN(C(=O)N[C@H](CN(C)C)c2ccccc2)C3(C)C)c2sccc2n1
Outline: as §1

dasatinib = compound: Cc1nc(Nc2ncc(C(=O)Nc3c(C)cccc3Cl)s2)cc(N2CCN(CCO)CC2)n1 [dasatinib]
Outline: as §1

[2] = compound: Cc1ncc(-c2ccnc(Nc3ccc(S(C)(=O)=O)cc3)n2)n1C(C)C
Outline: as §1

[3] = compound: Cn1cc(-c2ccc3nnc(C(F)(F)c4ccc5ncccc5c4)n3n2)cn1
Outline: as §1

tipifarnib = compound: Cn1cncc1[C@@](N)(c1ccc(Cl)cc1)c1ccc2c(c1)c(-c1cccc(Cl)c1)cc(=O)n2C [tipifarnib]
Outline: as §1

mubritinib = compound: FC(F)(F)c1ccc(/C=C/c2nc(COc3ccc(CCCCn4ccnn4)cc3)co2)cc1 [mubritinib]
Outline: as §1

bafetinib = compound: Cc1ccc(NC(=O)c2ccc(CN3CC[C@H](N(C)C)C3)c(C(F)(F)F)c2)cc1Nc1nccc(-c2cncnc2)n1 [bafetinib]
Outline: as §1

[4] = compound: Cc1cccc(CC(=O)N2CCc3c2ccc(-c2cn(C)c4ncnc(N)c24)c3F)n1
Outline: as §1

[5] = compound: Cn1cc(-c2ccc3c(c2)CCN3C(=O)Cc2cccc(C(F)(F)F)c2)c2c(N)ncnc21
Outline: as §1

Measured: log2 fold change

SUZ12 (UniProt Q15022)
inactive: nilotinib -0.081 | [1] 0.028 | dasatinib 0.047 | [2] 0.031 | [3] 0.026 | tipifarnib 0.027 | mubritinib -0.093

TAGLN (UniProt Q01995)
inactive: bafetinib -0.415 | [4] 0.129 | dasatinib 0.607 | tipifarnib 0.357

SUGT1 isoform 2 (UniProt Q9Y2Z0)
inactive: bafetinib 0.037 | dasatinib 0.109 | [3] 0.112 | tipifarnib -0.036 | mubritinib 0.073

SUPT3H isoform 4 (UniProt O75486)
inactive: [3] -0.01

STK40 isoform 4 (UniProt Q8N2I9)
inactive: dasatinib -0.209 | tipifarnib -0.033

TBC1D10A (UniProt Q9BXI6)
inactive: bafetinib -0.134 | [4] -0.078 | dasatinib -0.32 | [3] -0.044 | tipifarnib 0.096

STXBP5L (UniProt Q9Y2K9)
inactive: [4] 0.151 | nilotinib 0.034 | [1] -0.02 | dasatinib -0.105 | [2] 0.006 | [5] -0.054 | tipifarnib 0.102

TAZ (UniProt Q16635)
inactive: dasatinib -0.093 | [3] 0.058 | tipifarnib -0.066

TAF13 (UniProt Q15543)
inactive: [4] -0.155 | dasatinib -0.103 | [3] 0.074 | mubritinib 0.115

SUCO (UniProt Q9UBS9)
inactive: [4] -0.08 | dasatinib -0.096 | [5] -0.084 | [3] 0.085 | tipifarnib -0.008 | mubritinib -0.024

TANGO6 (UniProt Q9C0B7)
inactive: bafetinib 0.033 | nilotinib -0.018 | [1] -0.066 | dasatinib -0.216 | [2] -0.006 | [5] 0.083 | [3] -0.048 | tipifarnib -0.067 | mubritinib 0.042

TATDN1 isoform 2 (UniProt Q6P1N9)
inactive: [3] 0.033 | tipifarnib -0.201

TBC1D12 (UniProt O60347)
inactive: [5] -0.148 | tipifarnib -0.071 | mubritinib -0.014

SVBP (UniProt Q8N300)
inactive: bafetinib -0.04 | [4] -0.025 | dasatinib 0.017 | [5] 0.093 | [3] -0.048 | tipifarnib 0.029 | mubritinib 0.036

STOML1 (UniProt Q9UBI4)
inactive: [3] 0.127

TAF9B (UniProt Q9HBM6)
inactive: bafetinib 0.003 | [4] -0.186 | dasatinib -0.284 | [5] -0.089 | tipifarnib -0.022 | mubritinib -0.081

TACC3 (UniProt C9JWI7)
inactive: [3] 0.077

STRBP (UniProt Q96SI9)
inactive: bafetinib 0.099 | nilotinib 0.067 | [1] 0.082 | dasatinib 0.015 | [2] 0.297 | [5] -0.167 | [3] -0.053 | tipifarnib 0.016 | mubritinib -0.095

SYK (UniProt P43405)
inactive: bafetinib 0.276 | dasatinib -0.356 | [5] 0.141 | [3] -0.041 | tipifarnib 0.075

SUMF1 isoform 3 (UniProt Q8NBK3)
inactive: [4] -0.032 | nilotinib 0.16 | [1] 0 | dasatinib -0.049 | [2] 0.021 | [3] 0.04 | tipifarnib -0.059 | mubritinib -0.075

SUDS3 (UniProt Q9H7L9)
inactive: bafetinib 0.126 | nilotinib -0.071 | [1] 0.073 | dasatinib -0.027 | [2] 0.009 | [5] -0.011 | [3] 0.126 | mubritinib 0.032

TASP1 (UniProt Q9H6P5)
inactive: nilotinib 0.088 | [1] 0.062 | [2] -0.116 | mubritinib 0

TAF5 (UniProt Q15542)
inactive: [4] 0.052 | [3] -0.242

TAGLN3 (UniProt Q9UI15)
inactive: bafetinib -0.087 | dasatinib 0.082 | [5] -0.058 | mubritinib -0.057

STYX (UniProt Q8WUJ0)
inactive: [4] -0.114 | dasatinib -0.166 | [3] 0.042

SYS1 (UniProt Q8N2H4)
inactive: [4] 0.107 | dasatinib -0.149 | [3] 0.082 | tipifarnib 0.202

SUGP2 (UniProt Q8IX01)
inactive: nilotinib -0.025 | [1] -0.059 | [2] -0.291

TAF11 (UniProt Q15544)
inactive: bafetinib -0.03 | [4] -0.02 | dasatinib -0.039 | [5] -0.051 | [3] -0.038 | tipifarnib 0.086 | mubritinib 0.071

2 consecutive records from above, quoted:
STOML1 (UniProt Q9UBI4)
inactive: [3] 0.127

TAF9B (UniProt Q9HBM6)
inactive: bafetinib 0.003 | [4] -0.186 | dasatinib -0.284 | [5] -0.089 | tipifarnib -0.022 | mubritinib -0.081

(next part)

SUPT7L (UniProt O94864)
inactive: bafetinib -0.033 | nilotinib 0.185 | [1] -0.147 | [2] 0.253 | [3] 0.007 | mubritinib -0.065

TAF6L (UniProt Q9Y6J9)
inactive: [4] -0.078 | nilotinib 0.032 | [1] -0.048 | dasatinib -0.224 | [2] 0.046 | [5] -0.106 | [3] -0.018 | tipifarnib 0.055 | mubritinib 0.104

TAF4 (UniProt O00268)
inactive: bafetinib -0.153 | [4] 0 | [3] 0.042 | tipifarnib -0.231 | mubritinib -0.01

SUN1 isoform 9 (UniProt O94901)
inactive: [4] -0.036 | nilotinib -0.014 | [1] -0.115 | dasatinib 0.007 | [2] -0.018 | [5] -0.141 | [3] -0.055 | tipifarnib 0.039 | mubritinib -0.021

TAOK2 (UniProt Q9UL54)
inactive: [4] 0.092 | nilotinib -0.032 | [1] 0.048 | [2] -0.028 | [3] -0.093 | tipifarnib 0.014 | mubritinib 0.01

STS (UniProt P08842)
inactive: bafetinib -0.035 | tipifarnib 0.039

TAB2 (UniProt Q9NYJ8)
inactive: [3] 0.064

STK35 (UniProt Q8TDR2)
inactive: nilotinib 0.123 | [1] 0.523 | [2] -0.021 | [5] -0.201 | [3] -0.076 | tipifarnib 0.139 | mubritinib -0.223

TADA1 (UniProt Q96BN2)
inactive: tipifarnib 0.022
